The list shows a part of the results.
Compound: CC1Cc2ccccc2N1C(=O)C1CCCN(C1)C(=O)CCl (mixture of isomers) [TRIM25 ligand 11 (diastereomer mixture)]
Test: probe-labelled cysteine peptide fold change vs DMSO (competition) (log2 fold change); higher = less target engagement (more negative = stronger competition)
Details: THP-1, incubation time: 4 h
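Further: competitive chemoproteomic profiling in live THP-1 cells with an iodoacetamide desthiobiotin (IA-DTB) probe, comparing probe-labelled peptide intensities in compound-treated cells against DMSO-treated controls.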

Sequences of proteins named here, by UniProt entry; tags and fusion partners are left off. A change or cut given only in a name is not applied to a line headed by its entry.
UniProt P51610: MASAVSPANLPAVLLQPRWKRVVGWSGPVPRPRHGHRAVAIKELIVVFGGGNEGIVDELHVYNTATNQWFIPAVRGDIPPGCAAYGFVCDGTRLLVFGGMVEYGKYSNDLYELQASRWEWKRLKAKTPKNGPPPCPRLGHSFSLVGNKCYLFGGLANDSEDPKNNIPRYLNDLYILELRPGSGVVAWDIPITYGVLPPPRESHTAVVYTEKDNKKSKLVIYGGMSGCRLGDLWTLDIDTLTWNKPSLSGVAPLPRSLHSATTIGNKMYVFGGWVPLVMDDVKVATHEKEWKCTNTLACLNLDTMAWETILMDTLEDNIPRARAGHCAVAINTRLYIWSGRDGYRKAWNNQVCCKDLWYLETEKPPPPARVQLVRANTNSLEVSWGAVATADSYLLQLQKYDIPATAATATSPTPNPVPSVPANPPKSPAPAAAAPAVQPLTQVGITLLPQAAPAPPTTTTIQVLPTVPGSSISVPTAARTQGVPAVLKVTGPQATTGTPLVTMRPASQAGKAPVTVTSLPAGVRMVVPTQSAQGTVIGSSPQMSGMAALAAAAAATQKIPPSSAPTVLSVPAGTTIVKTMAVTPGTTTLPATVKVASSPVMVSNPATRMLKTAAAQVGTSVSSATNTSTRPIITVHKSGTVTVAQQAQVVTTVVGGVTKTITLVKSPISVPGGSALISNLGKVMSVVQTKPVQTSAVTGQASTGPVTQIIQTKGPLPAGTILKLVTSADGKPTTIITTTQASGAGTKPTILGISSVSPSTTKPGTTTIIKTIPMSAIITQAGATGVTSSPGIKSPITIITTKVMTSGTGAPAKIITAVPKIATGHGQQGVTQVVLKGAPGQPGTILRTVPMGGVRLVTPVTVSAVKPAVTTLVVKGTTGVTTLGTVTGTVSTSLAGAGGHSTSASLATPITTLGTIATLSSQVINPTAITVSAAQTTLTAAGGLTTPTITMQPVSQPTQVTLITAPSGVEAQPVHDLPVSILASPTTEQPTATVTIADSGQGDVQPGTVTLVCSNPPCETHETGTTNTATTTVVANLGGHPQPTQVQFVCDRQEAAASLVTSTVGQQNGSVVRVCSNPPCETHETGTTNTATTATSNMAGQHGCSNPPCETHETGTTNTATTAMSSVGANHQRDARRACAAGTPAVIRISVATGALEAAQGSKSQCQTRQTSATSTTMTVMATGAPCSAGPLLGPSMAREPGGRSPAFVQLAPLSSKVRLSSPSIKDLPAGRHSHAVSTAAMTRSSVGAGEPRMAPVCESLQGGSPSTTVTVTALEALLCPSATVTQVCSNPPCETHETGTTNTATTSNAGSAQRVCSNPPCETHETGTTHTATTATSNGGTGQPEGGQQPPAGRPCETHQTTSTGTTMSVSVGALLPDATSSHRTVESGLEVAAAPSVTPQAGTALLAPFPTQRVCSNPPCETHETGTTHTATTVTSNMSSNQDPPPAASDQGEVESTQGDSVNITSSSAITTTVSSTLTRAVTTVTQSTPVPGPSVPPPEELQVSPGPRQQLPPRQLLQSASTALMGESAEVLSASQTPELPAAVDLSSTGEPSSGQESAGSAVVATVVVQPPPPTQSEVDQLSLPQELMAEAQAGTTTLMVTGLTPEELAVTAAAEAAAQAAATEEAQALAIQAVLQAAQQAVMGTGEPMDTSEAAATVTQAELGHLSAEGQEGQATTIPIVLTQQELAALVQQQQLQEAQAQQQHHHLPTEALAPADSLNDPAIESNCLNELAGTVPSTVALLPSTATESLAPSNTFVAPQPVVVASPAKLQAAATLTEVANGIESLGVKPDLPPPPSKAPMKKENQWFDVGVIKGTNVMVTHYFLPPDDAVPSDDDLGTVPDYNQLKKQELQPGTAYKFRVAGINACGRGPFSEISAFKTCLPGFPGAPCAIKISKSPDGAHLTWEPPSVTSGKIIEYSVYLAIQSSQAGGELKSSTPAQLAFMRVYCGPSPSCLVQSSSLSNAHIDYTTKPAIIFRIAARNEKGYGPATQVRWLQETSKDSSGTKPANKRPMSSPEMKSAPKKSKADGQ
UniProt Q13547, whole entry, looked up: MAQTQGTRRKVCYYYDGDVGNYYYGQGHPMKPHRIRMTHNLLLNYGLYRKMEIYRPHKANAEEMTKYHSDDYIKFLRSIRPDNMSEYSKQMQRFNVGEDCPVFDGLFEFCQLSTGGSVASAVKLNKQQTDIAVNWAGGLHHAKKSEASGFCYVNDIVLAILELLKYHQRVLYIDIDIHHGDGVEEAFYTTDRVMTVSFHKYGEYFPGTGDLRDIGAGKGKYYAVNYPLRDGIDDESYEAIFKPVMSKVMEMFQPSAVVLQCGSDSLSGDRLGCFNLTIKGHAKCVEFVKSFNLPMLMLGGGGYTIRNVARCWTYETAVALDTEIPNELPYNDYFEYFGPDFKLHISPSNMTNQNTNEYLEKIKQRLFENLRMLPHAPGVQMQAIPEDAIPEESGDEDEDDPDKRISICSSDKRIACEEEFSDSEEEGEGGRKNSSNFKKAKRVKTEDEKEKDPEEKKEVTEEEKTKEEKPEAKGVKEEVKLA
UniProt Q8NG08: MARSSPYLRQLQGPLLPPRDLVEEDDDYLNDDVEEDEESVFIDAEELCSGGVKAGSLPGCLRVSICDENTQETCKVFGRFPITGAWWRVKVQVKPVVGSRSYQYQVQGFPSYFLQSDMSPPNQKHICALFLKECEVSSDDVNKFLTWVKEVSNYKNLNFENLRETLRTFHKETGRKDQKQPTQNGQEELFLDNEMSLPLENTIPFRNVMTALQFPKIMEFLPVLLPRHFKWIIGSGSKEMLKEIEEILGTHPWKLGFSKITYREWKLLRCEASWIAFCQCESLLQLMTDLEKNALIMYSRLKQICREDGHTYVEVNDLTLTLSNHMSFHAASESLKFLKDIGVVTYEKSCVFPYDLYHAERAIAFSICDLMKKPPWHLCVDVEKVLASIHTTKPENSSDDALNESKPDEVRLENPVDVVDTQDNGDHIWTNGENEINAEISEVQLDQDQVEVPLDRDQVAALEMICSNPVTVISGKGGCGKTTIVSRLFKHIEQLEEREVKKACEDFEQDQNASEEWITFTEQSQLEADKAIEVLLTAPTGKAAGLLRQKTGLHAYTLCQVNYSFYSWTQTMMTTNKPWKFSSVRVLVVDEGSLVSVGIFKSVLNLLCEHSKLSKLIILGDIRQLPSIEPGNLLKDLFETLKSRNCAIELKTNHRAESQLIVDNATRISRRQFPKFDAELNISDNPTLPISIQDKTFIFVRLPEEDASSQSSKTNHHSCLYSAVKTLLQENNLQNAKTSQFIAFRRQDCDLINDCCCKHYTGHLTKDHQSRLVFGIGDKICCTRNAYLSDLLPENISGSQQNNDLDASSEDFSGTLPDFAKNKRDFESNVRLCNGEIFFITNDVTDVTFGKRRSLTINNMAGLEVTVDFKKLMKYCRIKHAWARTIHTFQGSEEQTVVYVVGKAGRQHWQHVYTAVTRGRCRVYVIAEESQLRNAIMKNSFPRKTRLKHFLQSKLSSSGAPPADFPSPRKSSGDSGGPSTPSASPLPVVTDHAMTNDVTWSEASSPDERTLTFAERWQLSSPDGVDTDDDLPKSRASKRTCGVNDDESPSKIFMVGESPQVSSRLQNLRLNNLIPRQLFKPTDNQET
UniProt O14964, whole entry, looked up: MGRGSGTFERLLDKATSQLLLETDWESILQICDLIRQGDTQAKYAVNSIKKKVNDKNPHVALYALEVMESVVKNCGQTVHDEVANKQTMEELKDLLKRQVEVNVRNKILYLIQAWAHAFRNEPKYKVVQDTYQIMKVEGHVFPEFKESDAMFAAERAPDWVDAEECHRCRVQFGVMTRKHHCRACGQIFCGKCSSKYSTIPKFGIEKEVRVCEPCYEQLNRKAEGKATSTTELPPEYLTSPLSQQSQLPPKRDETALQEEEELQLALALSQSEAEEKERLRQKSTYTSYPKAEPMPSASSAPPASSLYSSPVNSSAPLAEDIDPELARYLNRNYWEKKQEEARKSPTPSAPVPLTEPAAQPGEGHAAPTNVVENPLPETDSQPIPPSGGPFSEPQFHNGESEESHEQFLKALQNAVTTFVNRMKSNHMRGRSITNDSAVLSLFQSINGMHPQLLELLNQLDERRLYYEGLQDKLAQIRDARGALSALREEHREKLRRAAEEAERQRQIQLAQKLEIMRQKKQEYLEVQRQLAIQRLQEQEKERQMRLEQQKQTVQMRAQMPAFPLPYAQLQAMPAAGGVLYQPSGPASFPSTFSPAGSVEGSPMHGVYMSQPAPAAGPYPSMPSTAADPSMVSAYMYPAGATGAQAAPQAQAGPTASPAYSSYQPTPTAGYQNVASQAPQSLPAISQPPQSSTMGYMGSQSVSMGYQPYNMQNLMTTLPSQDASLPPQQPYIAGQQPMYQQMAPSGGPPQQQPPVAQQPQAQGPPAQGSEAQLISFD
UniProt Q92769, whole entry, looked up: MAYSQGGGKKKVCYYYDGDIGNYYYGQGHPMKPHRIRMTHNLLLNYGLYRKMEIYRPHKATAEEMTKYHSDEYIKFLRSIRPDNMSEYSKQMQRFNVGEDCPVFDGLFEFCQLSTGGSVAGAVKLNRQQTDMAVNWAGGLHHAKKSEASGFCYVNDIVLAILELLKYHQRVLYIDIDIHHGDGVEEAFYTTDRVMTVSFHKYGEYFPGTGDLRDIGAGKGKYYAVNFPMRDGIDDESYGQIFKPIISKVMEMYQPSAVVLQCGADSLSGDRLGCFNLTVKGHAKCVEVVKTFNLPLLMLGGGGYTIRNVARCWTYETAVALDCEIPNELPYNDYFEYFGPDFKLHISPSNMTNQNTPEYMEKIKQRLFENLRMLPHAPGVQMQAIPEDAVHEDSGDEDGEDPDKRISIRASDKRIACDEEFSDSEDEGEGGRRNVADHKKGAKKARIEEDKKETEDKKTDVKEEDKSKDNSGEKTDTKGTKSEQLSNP
UniProt P04222, whole entry, looked up: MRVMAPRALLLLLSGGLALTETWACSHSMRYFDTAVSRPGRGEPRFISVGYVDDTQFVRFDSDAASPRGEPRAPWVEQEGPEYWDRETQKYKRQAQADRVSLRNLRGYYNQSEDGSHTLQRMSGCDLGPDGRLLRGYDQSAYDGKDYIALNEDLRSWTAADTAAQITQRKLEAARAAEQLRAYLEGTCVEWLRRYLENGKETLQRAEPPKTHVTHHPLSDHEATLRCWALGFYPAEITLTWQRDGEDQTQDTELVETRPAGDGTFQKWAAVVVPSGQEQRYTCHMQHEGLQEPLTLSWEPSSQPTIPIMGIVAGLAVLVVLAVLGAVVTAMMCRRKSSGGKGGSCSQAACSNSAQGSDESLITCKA
UniProt P19367: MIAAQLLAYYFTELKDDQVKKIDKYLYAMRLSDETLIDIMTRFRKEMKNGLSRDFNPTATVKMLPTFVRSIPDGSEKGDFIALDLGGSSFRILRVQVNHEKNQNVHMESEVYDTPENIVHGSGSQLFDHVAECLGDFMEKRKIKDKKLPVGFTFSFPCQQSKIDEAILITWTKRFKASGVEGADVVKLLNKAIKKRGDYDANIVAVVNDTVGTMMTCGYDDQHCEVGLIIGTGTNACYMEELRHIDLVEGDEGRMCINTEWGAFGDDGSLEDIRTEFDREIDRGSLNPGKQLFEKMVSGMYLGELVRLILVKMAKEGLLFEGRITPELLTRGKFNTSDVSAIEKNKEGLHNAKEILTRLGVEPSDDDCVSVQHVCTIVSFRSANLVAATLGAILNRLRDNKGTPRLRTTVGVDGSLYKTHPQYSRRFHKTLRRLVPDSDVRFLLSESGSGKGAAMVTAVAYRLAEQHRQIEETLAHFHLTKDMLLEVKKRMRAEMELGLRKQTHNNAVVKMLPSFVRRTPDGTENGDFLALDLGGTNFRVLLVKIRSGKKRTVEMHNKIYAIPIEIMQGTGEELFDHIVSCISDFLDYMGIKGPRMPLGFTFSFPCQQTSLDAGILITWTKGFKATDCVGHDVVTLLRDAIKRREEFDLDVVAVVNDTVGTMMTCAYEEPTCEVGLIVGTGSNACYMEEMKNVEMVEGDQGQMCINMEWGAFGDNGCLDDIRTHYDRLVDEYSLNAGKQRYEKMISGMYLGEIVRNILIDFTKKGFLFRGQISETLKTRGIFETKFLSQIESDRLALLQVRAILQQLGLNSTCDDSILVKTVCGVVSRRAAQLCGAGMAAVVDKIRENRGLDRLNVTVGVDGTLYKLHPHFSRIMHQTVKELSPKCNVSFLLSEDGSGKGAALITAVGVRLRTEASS
UniProt P51858: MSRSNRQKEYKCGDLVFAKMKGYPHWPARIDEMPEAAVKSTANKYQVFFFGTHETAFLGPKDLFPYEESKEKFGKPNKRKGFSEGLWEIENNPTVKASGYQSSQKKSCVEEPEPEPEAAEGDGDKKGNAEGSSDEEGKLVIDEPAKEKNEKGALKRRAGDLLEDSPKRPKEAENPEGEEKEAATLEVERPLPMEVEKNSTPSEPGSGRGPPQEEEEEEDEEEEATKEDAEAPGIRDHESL

Target	probe-labelled cysteine peptide fold change (10 µM)	probe-labelled cysteine peptide fold change (50 µM)
HGH1_Q9BTY7_138_EPAPCAALMAALAAAEPADSGLER (UniProt Q9BTY7)	-0.136	-0.0514
HDAC8_Q9BY41_153_KDEASGFCYLNDAVLGILR (UniProt Q9BY41)	-0.0445	0.0504
HCFC1_P51610_1895_TCLPGFPGAPCAIK (UniProt P51610)	0.00642	-0.0805
HCK_P08631_48_TETSASPHCPVYVPDPTSTIK (UniProt P08631)	0.136	-0.0792
HBS1L_Q9Y450_469_GLCLLEQIDSFKPPQR (UniProt Q9Y450)	-0.0197	-0.101
HCFC1_P51610_353_AWNNQVCCK (UniProt P51610)	-0.0303	0.0544
HLCS_P50747_375_EILTTLGLSCDMK (UniProt P50747)	-0.121	-0.305
HDAC1_Q13547_12_VCYYYDGDVGNYYYGQGHPMKPHR (UniProt Q13547)	-0.265	-0.227
HDLBP_Q00341_683_SIMEECGGVHIHFPVEGSGSDTVVIRGPSSDVEK (UniProt Q00341)	-0.0718	-0.059
HEATR5B_Q9P2D3_1166_LCSDIHDTLGHMLSSLAVEK (UniProt Q9P2D3)	0.0101	-0.181
HK2_P52789_794_FLSQIESDCLALLQVR (UniProt P52789)	0.0239	0.17
HDHD5_Q9BXW7_392_DLCFSPGLMEASHVVNDVNEAVQLVFRK (UniProt Q9BXW7)	-0.375	-0.495
HLA-DRB1_P04229_59_CIYNQEESVR (UniProt P04229)	0.0863	0.0381
HAUS7_Q99871_348_KQQGEQICWGGSSSVMSLATK (UniProt Q99871)	-0.105	-0.293
HELB_Q8NG08_127_HICALFLK (UniProt Q8NG08)	-0.086	0.0468
HGS_O14964_185+190_ACGQIFCGK (UniProt O14964)	-0.0659	-0.197
HERC2_O95714_914_ALSALLPCAVSGNEVNISPGRR (UniProt O95714)	0.0334	-0.0151
HDLBP_Q00341_948_CDIIIISGR (UniProt Q00341)	-0.00247	0.215
HCFC1_P51610_227_LVIYGGMSGCR (UniProt P51610)	-0.0893	-0.202

Target	probe-labelled cysteine peptide fold change (10 µM)	probe-labelled cysteine peptide fold change (50 µM)
HERC5_Q9UII4_892_MCDEDIIK (UniProt Q9UII4)	0.0127	-0.0691
HDAC3_O15379_94_SLNAFNVGDDCPVFPGLFEFCSR (UniProt O15379)	-0.0228	-0.0552
HERPUD1_Q15011_68_LLLDHQCLR (UniProt Q15011)	0.113	0.348
HEATR3_Q7Z4Q2_464_KMNTIQCR (UniProt Q7Z4Q2)	-0.136	-0.103
HECTD3_Q5T447_744_VCGDPEVTVDALR (UniProt Q5T447)	0.0618	0.0766
HDAC2_Q92769_13_KVCYYYDGDIGNYYYGQGHPMK (UniProt Q92769)	0.0694	-0.0187
HERC4_Q5GLZ8_248+249_IVYICCGEDHTAALTK (UniProt Q5GLZ8)	0.0171	0.0424
HGS_O14964_185_ACGQIFCGK (UniProt O14964)	-0.0108	0.0195
HLA-E_P13747_280_YTCHVQHEGLPEPVTLR (UniProt P13747)	-0.022	0.000676
HLA-C_P04222_364_GGSCSQAASSNSAQGSDESLIACK (UniProt P04222)	0.168	-0.0156
HDAC2_Q92769_13_KVCYYYDGDIGNYYYGQGHPMKPHR (UniProt Q92769)	-0.431	-0.357
HEATR5B_Q9P2D3_1137_TDIHCR (UniProt Q9P2D3)	-0.0367	-0.217
HDAC1_Q13547_12_KVCYYYDGDVGNYYYGQGHPMK (UniProt Q13547)	-0.184	-0.0664
HEATR5B_Q9P2D3_518_TSPEAVSGYSFAMAALLGGVHQCPLGIPHAK (UniProt Q9P2D3)	0.123	-0.0773
HK1_P19367_375_LGVEPSDDDCVSVQHVCTIVSFR (UniProt P19367)	0.0282	-0.149
HDLBP_Q00341_636_RANCEAAR (UniProt Q00341)	0.136	0.13
HDGF_P51858_108_SCVEEPEPEPEAAEGDGDK (UniProt P51858)	-0.0149	-0.235
HDAC4_P56524_669_HQCTCGSSSSHPEHAGR (UniProt P56524)	0.168	0.143
HGS_O14964_212_VCEPCYEQLNR (UniProt O14964)	0.214	-0.0373

— the supplement of paper PMC12067093, “Discovery and optimisation of a covalent ligand for TRIM25 and its application to targeted protein ubiquitination” (Chemical Science, 2025)
